PubChem BioAssay AID1259308, NCATS | 2017
Purpose: 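Knock-downs that increase output of a recombinant reporter protein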 (primary screen). Cell system: human HEK293 embryonic kidney cells stably expressing firefly luciferase (HEK-CMV-Luc2-Hygro). Reagents: single siRNA against human genes, 0.8 pmol siRNA per well. Time to read-out: 72 h. Detection: 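Reporter luminescence and viable-cell signal on separate replicate plates, given as percent of non-targeting control and median/MAD z-scores, plus per-cell luciferase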. Reading the numbers: total luciferase, z-score and total luciferase, % of control: higher = more reporter protein produced. Hit rule: 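Active when the median/MAD z-score for overall luciferase is greater than 3; a gene was taken forward for validation with new siRNAs if at least two of its three siRNAs passed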. Calls: active = raised luciferase; inactive = no rise.
The whole screen tested about 59,000 reagents; shown is a part drawn at random. In the full data, about 1,510 (2.6%) are marked active. 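Calls use total luciferase alone and ignore viability, so some active siRNAs may act by altering cell number.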 Entries without a mark were called inactive. Reagents against one gene are numbered here. Further read-outs or replicates are left out here.

ZNF420 (GeneID 147923) #1 gave total luciferase, z-score -0.716; total luciferase, % of control 67.7. Silencing of ZNF420 (GeneID 147923) #2 resulted in: total luciferase, z-score 0.548; total luciferase, % of control 92.8. ZNF420 (GeneID 147923) #3 gave total luciferase, z-score 0.757; total luciferase, % of control 96.9. Depletion of UQCC3 (GeneID 790955) #1 came out at: total luciferase, z-score 0.441; total luciferase, % of control 90.7. UQCC3 (GeneID 790955) #2 showed total luciferase, z-score 0.684; total luciferase, % of control 95.5. Silencing of UQCC3 (GeneID 790955) #3 gave: total luciferase, z-score 0.238; total luciferase, % of control 86.6.

CDCA7L (GeneID 55536) #1 showed total luciferase, z-score -0.185; total luciferase, % of control 78.2. With knock-down of CDCA7L (GeneID 55536) #2, the screen gave total luciferase, z-score -1.07; total luciferase, % of control 60.6. Against CDCA7L (GeneID 55536) #3 the deposit lists total luciferase, z-score 0.986; total luciferase, % of control 102. For UCP2 (GeneID 7351) #1, the entry reads total luciferase, z-score 0.393; total luciferase, % of control 89.7. UCP2 (GeneID 7351) #2 scored total luciferase, z-score 0.0246; total luciferase, % of control 82.4. For UCP2 (GeneID 7351) #3, the values are total luciferase, z-score 0.406; total luciferase, % of control 90.

After knock-down of FMN2 (GeneID 56776) #1, the record shows total luciferase, z-score 0.554; total luciferase, % of control 92.9. FMN2 (GeneID 56776) #2 showed total luciferase, z-score -0.28; total luciferase, % of control 76.3. Knock-down of FMN2 (GeneID 56776) #3 gave: total luciferase, z-score -0.941; total luciferase, % of control 63.2. After knock-down of ZFYVE9 (GeneID 9372) #1, the screen gave total luciferase, z-score 0.593; total luciferase, % of control 93.7. Silencing of ZFYVE9 (GeneID 9372) #2 gave: total luciferase, z-score -0.134; total luciferase, % of control 79.2. Knock-down of ZFYVE9 (GeneID 9372) #3 came out at: total luciferase, z-score -0.186; total luciferase, % of control 78.2.

NUDT13 (GeneID 25961) #1 gave total luciferase, z-score -0.73; total luciferase, % of control 67.4. Knock-down of NUDT13 (GeneID 25961) #2 resulted in: total luciferase, z-score -1.19; total luciferase, % of control 58.3. For NUDT13 (GeneID 25961) #3, the entry reads total luciferase, z-score -1.21; total luciferase, % of control 57.7. For GABRQ (GeneID 55879) #1 the deposit lists total luciferase, z-score -0.108; total luciferase, % of control 79.7. With knock-down of GABRQ (GeneID 55879) #2, the record shows total luciferase, z-score -0.125; total luciferase, % of control 79.4. With knock-down of GABRQ (GeneID 55879) #3 the results were total luciferase, z-score -0.089; total luciferase, % of control 80.1.

Depletion of ZNF771 (GeneID 51333) #1 came out at: total luciferase, z-score 0.854; total luciferase, % of control 98.9. ZNF771 (GeneID 51333) #2 gave total luciferase, z-score -2.81; total luciferase, % of control 26. Against ZNF771 (GeneID 51333) #3, the values are total luciferase, z-score 0.95; total luciferase, % of control 101. Against C1orf21 (GeneID 81563) #1, the entry reads total luciferase, z-score 2.71; total luciferase, % of control 136. Silencing of C1orf21 (GeneID 81563) #2 came out at: total luciferase, z-score 0.0236; total luciferase, % of control 82.4. For C1orf21 (GeneID 81563) #3, the values are total luciferase, z-score 0.843; total luciferase, % of control 98.6.

TANGO6 (GeneID 79613) #1 showed total luciferase, z-score 0.701; total luciferase, % of control 95.8. Knock-down of TANGO6 (GeneID 79613) #2 gave: total luciferase, z-score 0.0635; total luciferase, % of control 83.1. Knock-down of TANGO6 (GeneID 79613) #3 gave: total luciferase, z-score 0.717; total luciferase, % of control 96.1.

Not a retest: 4 of the entries above.
C1orf21 (GeneID 81563) #1 — total luciferase, z-score = 2.71; total luciferase, % of control = 136
C1orf21 (GeneID 81563) #2 — total luciferase, z-score = 0.0236; total luciferase, % of control = 82.4
C1orf21 (GeneID 81563) #3 — total luciferase, z-score = 0.843; total luciferase, % of control = 98.6
TANGO6 (GeneID 79613) #1 — total luciferase, z-score = 0.701; total luciferase, % of control = 95.8
